The results are deposited in PubChem (AID1224904; Broad Institute, 2016).

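Control-channel Italica luciferase signal in doxycycline-induced 293T-iDUX4 cells, given as percent activity after a 24-hour treatment. The test concentration is not given here. Percent change in the Italica control signal; more negative values mean stronger inhibition, which points to nonspecific, tet-on or cytotoxic effects.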

Values are in %. Common to all entries: measured here: Italica tet-on control reporter. This is a side read-out of the assay, for part of the compounds, not drawn at random.

Result for OC[C@@H]1[C@@H](c2ccc(-c3cccc(F)c3)cc2)[C@@H]2CN(CCC(F)(F)F)CCCCN12 was activity change 7.525%. Result for COc1cccc(S(=O)(=O)N2CCCCN3[C@H](C2)[C@@H](c2ccc(-c4cccnc4)cc2)[C@@H]3CO)c1 was activity change -1.426%. CN1CCCCN2[C@@H](CO)[C@@H](c3ccc(C#Cc4ccccc4F)cc3)[C@@H]2C1 gave activity change 5.471%. For CCOC(=O)N(C)C[C@@H]1OCc2ccccc2-c2c(n(C)c3ccccc23)C(=O)N([C@@H](C)CO)C[C@@H]1C the result was activity change -0.3514%. Result for N#Cc1ccc(-c2ccc3c(c2)[C@H]2[C@H](CCN2C(=O)c2ccc4c(c2)OCO4)[C@H](CO)N3)cc1 was activity change -37.1%. Result for O=C(C[C@H]1CC[C@H](NS(=O)(=O)c2ccccc2)[C@H](CO)O1)NCc1ccc(Cl)c(Cl)c1 was activity change -11.33%. N#C[C@H]1[C@@H](c2ccccc2-c2ccccc2F)[C@@H](CO)N1C(=O)Cc1ccccc1 read activity change -12.58%. For COc1ccc2c3c(n(C)c2c1)[C@@H](CO)N(CC1CC1)CC31CN(C(=O)c2ccc3c(c2)OCO3)C1 the result was activity change -14.76%.

For Cc1ccc(S(=O)(=O)N2CC[C@@H]3[C@@H](CO)N(C)c4ccc(-c5cccc(C#N)c5)cc4[C@@H]32)cc1 the result was activity change -45.59%. COc1ccc(S(=O)(=O)N(C)C[C@@H]2OCc3ccccc3-c3c(n(C)c4ccccc34)C(=O)N([C@@H](C)CO)C[C@H]2C)cc1 read activity change -33.32%. Result for O=C1CN(S(=O)(=O)Cc2ccccc2)C[C@@H]2[C@H](c3ccc(C#CCC4CCCC4)cc3)[C@H](CO)N12 was activity change -6.034%. Result for Cc1cccc(S(=O)(=O)N2C[C@@H]3N[C@H](C2)C3c2ccc(-c3ccccc3C)cc2)c1 (some centres not stated) was activity change -4.613%. O=C(C1CC1)N1CCCCN2[C@H](CO)[C@H](c3ccc(C#CC4CCCC4)cc3)[C@@H]2C1 gave activity change 7.702%. COc1cccc(-c2ccc([C@@H]3[C@H](CO)N4CCCCN(C(=O)c5ccc6c(c5)OCO6)C[C@@H]34)cc2)c1 gave activity change -84.32%. With CN1c2ccc(C#Cc3cccnc3)cc2[C@@H]2[C@@H](CCN2S(=O)(=O)c2cccc(F)c2)[C@H]1CO the assay gave activity change -14.22%. With COc1ccc(-c2ccc3c(c2)[C@@H]2[C@@H](CCN2S(=O)(=O)c2ccc(OC)cc2)[C@H](CO)N3)cc1 the assay gave activity change -41.42%.

Result for O=C(Nc1ccc(F)cc1)N1CCCCN2[C@H](CO)[C@@H](c3ccc(-c4cccc(F)c4)cc3)[C@H]2C1 was activity change -55.48%. CN1CCCCN2[C@@H](CO)[C@@H](c3ccc(/C=C/c4ccccc4)cc3)[C@@H]2C1 read activity change -9.086%. CN1c2ccc(-c3cccc(C#N)c3)cc2[C@@H]2[C@@H](CCN2S(=O)(=O)c2ccccc2F)[C@H]1CO gave activity change -17.82%. O=C(C[C@@H]1CC[C@@H]2[C@H](COC[C@@H](O)CN2Cc2ccc(Oc3ccccc3)cc2)O1)N1CCc2ccccc2C1 read activity change -43.52%. Result for CN(C)C(=O)c1cccc(-c2ccc3c(c2)[C@H]2[C@H](CCN2C(=O)c2ccc4c(c2)OCO4)[C@H](CO)N3)c1 was activity change -41.94%. For CN(C)C(=O)c1ccc(-c2ccc3c(c2)[C@@H]2[C@@H](CCN2C(=O)C2CCCC2)[C@H](CO)N3C)cc1 the result was activity change -20.14%. For COc1ccc2c3c([nH]c2c1)[C@H](CO)N(S(=O)(=O)c1cn(C)cn1)CC31CCN(Cc2ccccc2)CC1 the result was activity change -63.2%. O=C(NCC1CC1)[C@@H]1N[C@@H]2c3ccc(C4=CCCCC4)c(=O)n3C[C@@H]2[C@H]1CO read activity change 7.502%.

With Cc1ccccc1S(=O)(=O)N(C)C[C@@H]1OCc2ccccc2-c2ccccc2C(=O)N([C@@H](C)CO)C[C@@H]1C the assay gave activity change -13.3%. With OC[C@H]1[C@@H](c2ccc(-c3ccc(F)cc3)cc2)[C@H]2CN(Cc3cccnc3)CCCCN21 the assay gave activity change -5.574%. C[C@@H]1CN([C@@H](C)CO)S(=O)(=O)c2ccc(C#CC(C)(C)O)cc2O[C@H]1CN(C)Cc1ccc(F)cc1 gave activity change -71.35%. COc1ccccc1-c1ccc2c(c1)[C@H]1[C@H](CCN1C(=O)C1CCC1)[C@@H](CO)N2 read activity change -36.98%. Result for COc1ccc(-c2ccc3c(c2)[C@@H]2[C@@H](CCN2C(=O)c2ccc4c(c2)OCO4)[C@H](CO)N3)cc1 was activity change -22.79%. CN1c2ccc(-c3ccccc3)cc2[C@@H]2[C@@H](CCN2C(=O)c2ccc3c(c2)OCO3)[C@H]1CO read activity change -23.33%. For O=C(O)[C@@H]1[C@@H](CO)[C@@H]2Cn3c(ccc(/C=C/c4ccccc4)c3=O)[C@@H]2N1C(=O)C1CCCC1 the result was activity change 0.346%. Result for COc1ccc2c3c([nH]c2c1)[C@H](CO)N(Cc1ccccc1F)CC31CCN(C)CC1 was activity change -6.461%.

O=C(Nc1cccc(F)c1)N1CCCCN2[C@@H](CO)[C@H](c3ccc(C#CC4CC4)cc3)[C@@H]2C1 gave activity change -29.23%.

For reference, 3 entries once more:

- O=C(C1CC1)N1CCCCN2[C@H](CO)[C@H](c3ccc(C#CC4CCCC4)cc3)[C@@H]2C1 : activity change 7.702%
- COc1ccc(S(=O)(=O)N(C)C[C@@H]2OCc3ccccc3-c3c(n(C)c4ccccc34)C(=O)N([C@@H](C)CO)C[C@H]2C)cc1 : activity change -33.32%
- CN1CCCCN2[C@@H](CO)[C@@H](c3ccc(C#Cc4ccccc4F)cc3)[C@@H]2C1 : activity change 5.471%